The list is a part of this screen's results and no random one: it is rich in T/C values a quarter to a half above the control, in often repeated tests (any T/C) and in doses without a T/C. Further doses and runs are listed elsewhere. T/C: endpoint of the treated group in % of that of the vehicle group. Some entries give survivors of the animals treated and no T/C: the source files T/C as zero there, which appears to mark a toxic dose or a test without result, not a measured value. Some survivor counts are full or nearly so, which does not show that the dose was tolerated: survival well below the control is almost never listed, so the zero probably covers shortened survival too. Counts of survivors are from the toxicity check (mostly the fifth day) where no day follows; animals may have died later. Schedules are NCI's codes, taken here to give the interval after Q, in days (D) or hours (H), and the number of doses after X. Some schedule codes hold Z or #, which are not explained here. Some entries were tested several times; the values are given in rising order. Where survival is the endpoint, this PubChem deposit counts one and a half times the control or more as active, and values a quarter to a half above the control carry no call in these data; other NCI protocols may use other cut-offs. Some T/C values are followed by the survivors on the day toxicity was checked, most often the fifth; where none is given, no animal had died by that day.
System: L1210 leukemia ip in BDF1 mice, survival T/C
Test: NCI In Vivo Anticancer Drug Screen. Data for tumor model L1210 Leukemia (intraperitoneal) in B6D2F1 (BDF1) mice
Details: T/C endpoint: mean survival time, higher T/C = longer survival
[1] = dose: 200.0 mg/kg/injection, schedule: Q01DX001 (ip), vehicle: other
[2] = dose: 400.0 mg/kg/injection, schedule: Q01DX001 (ip), vehicle: other
[3] = dose: 300.0 mg/kg/injection, schedule: Q01DX001 (ip), vehicle: saline
[4] = dose: 200.0 mg/kg/injection, schedule: Q04DX003 (ip), vehicle: saline
[5] = dose: 400.0 mg/kg/injection, schedule: Q04DX003 (ip), vehicle: saline

With `O=C/C(Br)=C(/Br)C(=O)O` the survivor count (dose: 50.0 mg/kg/injection, schedule: Q04DX002 (ip), vehicle: saline + alcohol) was 2 of 3, the survivor count (dose: 100.0 mg/kg/injection, schedule: Q04DX002 (ip), vehicle: saline + alcohol) was 0 of 3 and 1 of 3 and the survivor count (dose: 200.0 mg/kg/injection, schedule: Q04DX002 (ip), vehicle: saline + alcohol) was 0 of 3. For the same molecule, the survivor count (dose: 400.0 mg/kg/injection, schedule: Q04DX002 (ip), vehicle: saline + alcohol) was 0 of 3.
In the case of `NCCCC(=O)NCCCCCCNCCCCCCNC(=O)CCCN`, the survivor count (dose: 200.0 mg/kg/injection, schedule: Q01DX001 (ip), vehicle: saline) is reported as 0 of 4 and the survivor count (dose: 400.0 mg/kg/injection, schedule: Q01DX001 (ip), vehicle: saline) is reported as 0 of 4.
For `C[N+](C)(C)Cc1ccccc1/C(=N\O)c1ccccc1`, the survivor count (dose: 40.0 mg/kg/injection, schedule: Q01DX001 (ip), vehicle: carboxymethylcellulose (CMC)) was 0 of 6 and the survivor count (dose: 80.0 mg/kg/injection, schedule: Q01DX001 (ip), vehicle: carboxymethylcellulose (CMC)) was 1 of 6.
`COc1ccc(OCC(=O)N2CCCCC2)cc1` was tested, and the survivor count (dose: 400.0 mg/kg/injection, schedule: Q01DX009 (ip), vehicle: carboxymethylcellulose (CMC)) was 0 of 6.
`Clc1nn2nnnc2c2ccccc12` was tested, and the survivor count (dose: 25.0 mg/kg/injection, schedule: Q04DX002 (ip), vehicle: Klucel (hydroxypropylcellulose) (HPC)) was 3 of 3, the survivor count (dose: 50.0 mg/kg/injection, schedule: Q04DX002 (ip), vehicle: Klucel (hydroxypropylcellulose) (HPC)) was 0 of 3 and the survivor count (dose: 100.0 mg/kg/injection, schedule: Q04DX002 (ip), vehicle: Klucel (hydroxypropylcellulose) (HPC)) was 0 of 3.
In the case of `CN(Cc1cnc2nc(N)nc(N)c2n1)c1ccc(C(=O)NC(CCC(=O)NCC(=O)O)C(=O)O)cc1` (stereo not given), the T/C (dose: 1.0 mg/kg/injection, schedule: Q01DX009 (ip), vehicle: sodium bicarbonate) is reported as 139 % of control, the T/C (dose: 2.0 mg/kg/injection, schedule: Q01DX009 (ip), vehicle: sodium bicarbonate) is reported as 145 % of control and the survivor count (dose: 25.0 mg/kg/injection, schedule: Q01DX009 (ip), vehicle: sodium bicarbonate) is reported as 5 of 6. The survivor count (dose: 50.0 mg/kg/injection, schedule: Q01DX009 (ip), vehicle: sodium bicarbonate) was 3 of 6.
With `CC[C@@](O)(C(=O)NC)c1cc2n(c(=O)c1CO)Cc1cc3ccccc3nc1-2` the T/C (dose: 1.0 mg/kg/injection, schedule: Q01DX015 (ip), vehicle: saline) was 134 % of control, the T/C (dose: 1.5 mg/kg/injection, schedule: Q01DX015 (ip), vehicle: saline) was 134 % of control and the T/C (dose: 3.5 mg/kg/injection, schedule: Q01DX015 (ip), vehicle: saline) was 126 % of control. For the same molecule, the T/C (dose: 8.0 mg/kg/injection, schedule: Q01DX001 (ip), vehicle: saline) was 139 % of control, the survivor count (dose: 8.0 mg/kg/injection, schedule: Q01DX015 (ip), vehicle: saline) was 6 of 6 and the survivor count (dose: 12.0 mg/kg/injection, schedule: Q01DX015 (ip), vehicle: saline) was 6 of 6. The T/C (dose: 16.0 mg/kg/injection, schedule: Q01DX001 (ip), vehicle: saline) was 131 % of control and the T/C (dose: 32.0 mg/kg/injection, schedule: Q01DX001 (ip), vehicle: saline) was 133 % of control [3 of 4 alive].
In the case of `Cc1ccc(NC(=O)c2ccccc2-c2ccccc2C(=O)Nc2ccc(C)cc2)cc1`, the survivor count [1] is reported as 4 of 4 and the survivor count [2] is reported as 4 of 4.
For `NS(=O)(=O)c1cc[n+]([O-])c2ccccc12`, the survivor count (dose: 400.0 mg/kg/injection, schedule: Q01DX009 (ip), vehicle: saline with Tween-80) was 3 of 6.
For `CCCC[P+](CC(C)(C)c1ccc(C)cc1)(c1ccccc1)c1ccccc1`, the survivor count (dose: 25.0 mg/kg/injection, schedule: Q04DX002 (ip), vehicle: saline with Tween-80) was 3 of 3, the survivor count (dose: 50.0 mg/kg/injection, schedule: Q04DX002 (ip), vehicle: saline with Tween-80) was 3 of 3 and the survivor count (dose: 200.0 mg/kg/injection, schedule: Q04DX002 (ip), vehicle: saline with Tween-80) was 0 of 3.
In the case of `CC1OC(OC2C(O[C@H]3CC[C@@]4(C)C(=CC[C@H]5[C@@H]6C[C@@H]7O[C@]8(CC[C@H](C)CN8)[C@@H](C)[C@@H]7[C@@]6(C)CC[C@@H]54)C3)OC(CO)C(O)C2OC2OC(CO)C(O)C(O)C2O)C(O)C(O)C1O` (stereo not given in full), the survivor count (dose: 40.0 mg/kg/injection, schedule: Q01DX001 (ip), vehicle: other) is reported as 2 of 4, the survivor count (dose: 50.0 mg/kg/injection, schedule: Q01DX001 (ip), vehicle: other) is reported as 1 of 4 and the survivor count (dose: 80.0 mg/kg/injection, schedule: Q01DX001 (ip), vehicle: other) is reported as 1 of 4. The survivor count (dose: 100.0 mg/kg/injection, schedule: Q01DX001 (ip), vehicle: other) was 1 of 4, the survivor count [1] was 0 of 4 and the survivor count [2] was 0 of 4.
With `c1ccc(C2(c3ccccc3)CN3CCOC3=N2)cc1` the survivor count (dose: 100.0 mg/kg/injection, schedule: Q04DX003 (ip), vehicle: acetone) was 1 of 6, the survivor count (dose: 200.0 mg/kg/injection, schedule: Q04DX003 (ip), vehicle: acetone) was 0 of 6 and the survivor count (dose: 400.0 mg/kg/injection, schedule: Q04DX003 (ip), vehicle: acetone) was 0 of 6.
For `C=C(C)C1(CCCCC)C(=O)NC(=O)NC1=O`, the survivor count [3] was 1 of 6.
In the case of `Cc1cc(NC(=O)c2ccc(C(=O)Nc3ccc(C4=NCCN4)c(C)c3)cc2)ccc1C1=NCCN1`, the T/C (dose: 110.0 mg/kg/injection, schedule: Q01DX Z (ip), vehicle: carboxymethylcellulose (CMC)) is reported as 128 % of control, the T/C (dose: 166.0 mg/kg/injection, schedule: Q01DX Z (ip), vehicle: carboxymethylcellulose (CMC)) is reported as 132 % of control [5 of 6 alive] and the T/C (dose: 168.0 mg/kg/injection, schedule: Q01DX Z (ip), vehicle: carboxymethylcellulose (CMC)) is reported as 146 % of control. For the same molecule, the survivor count (dose: 375.0 mg/kg/injection, schedule: Q01DX Z (ip), vehicle: carboxymethylcellulose (CMC)) was 6 of 6.
In the case of `Cc1ccc[n+](CC(=O)CCc2ccc(C(=O)C[n+]3cccc(C)c3)cc2)c1`, the survivor count (dose: 0.28 mg/kg/injection, schedule: Q04DX003 (ip), vehicle: saline) is reported as 2 of 6, the survivor count (dose: 75.0 mg/kg/injection, schedule: Q01DX001 (ip), vehicle: saline) is reported as 0 of 6 and the survivor count (dose: 150.0 mg/kg/injection, schedule: Q01DX001 (ip), vehicle: saline) is reported as 0 of 6. For the same molecule, the survivor count [3] was 0 of 6.
With `CC(=O)N1C(C)C1(c1ccccc1)[n+]1ccccc1` (stereo not given) the survivor count (dose: 100.0 mg/kg/injection, schedule: Q04DX003 (ip), vehicle: saline) was 3 of 6, the survivor count [4] was 0 of 6 and the survivor count [5] was 0 of 6.
For `N=C(N)SC/C=C/CSC(=N)N`, the survivor count [4] was 2 of 6 and the survivor count [5] was 0 of 6.
`BrCCOC1CCCCO1` (stereo not given) was tested, and the survivor count (dose: 400.0 mg/kg/injection, schedule: Q01DX005 (ip), vehicle: saline) was 0 of 4.
For `O=C(COc1ccc(Cl)c(Cl)c1)N(Cc1ccccc1)Cc1ccc[n+](Cc2cccc(Cl)c2S(=O)(=O)F)c1`, the survivor count (dose: 100.0 mg/kg/injection, schedule: Q04DX003 (ip), vehicle: saline with Tween-80) was 1 of 6 and 2 of 6, the survivor count (dose: 200.0 mg/kg/injection, schedule: Q04DX003 (ip), vehicle: saline with Tween-80) was 0 of 6 and the survivor count (dose: 400.0 mg/kg/injection, schedule: Q04DX003 (ip), vehicle: saline with Tween-80) was 0 of 6.
For `c1ccc(CN(CCNc2ccccc2)c2ccccc2)cc1`, the survivor count (dose: 200.0 mg/kg/injection, schedule: Q01DX009 (ip), vehicle: water) was 5 of 6.
In the case of `CCN(CC)CCCC(C)Nc1ccc(NC(C)CCCN(CC)CC)c2c1C(=O)c1ccccc1C2=O` (stereo not given), the survivor count (dose: 100.0 mg/kg/injection, schedule: Q01DX009 (ip), vehicle: saline) is reported as 1 of 3, the survivor count (dose: 200.0 mg/kg/injection, schedule: Q04DX002 (ip), vehicle: saline) is reported as 0 of 3 and the survivor count (dose: 400.0 mg/kg/injection, schedule: Q04DX002 (ip), vehicle: saline) is reported as 0 of 3.
For `Cc1cccc(NC(=O)N(C)N)c1`, the survivor count (dose: 300.0 mg/kg/injection, schedule: Q01DX001 (ip), vehicle: carboxymethylcellulose (CMC)) was 3 of 6.
In the case of `CC[CH2][Pb]([Cl])([CH2]CC)[CH2]CC`, the survivor count (dose: 100.0 mg/kg/injection, schedule: Q04DX003 (ip), vehicle: Klucel (hydroxypropylcellulose) (HPC)) is reported as 2 of 6, the survivor count (dose: 200.0 mg/kg/injection, schedule: Q04DX003 (ip), vehicle: Klucel (hydroxypropylcellulose) (HPC)) is reported as 1 of 6 and the survivor count (dose: 400.0 mg/kg/injection, schedule: Q04DX003 (ip), vehicle: Klucel (hydroxypropylcellulose) (HPC)) is reported as 3 of 6.

Source: PubChem BioAssay AID248 (DTP/NCI, 2004)
